Values from PubChem BioAssay AID1259254 (NCATS, 2017)

Purpose: 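Gene knock-downs that lead to re-replication, shown by excess G2 DNA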 (primary screen)
System: human HCT116 colorectal cancer cells
Reagents: single siRNA against human genes
Time to read-out: 3 days
Read-out: 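Imaged Hoechst DNA stain sorts each cell into a cycle phase by DNA amount; per plate, G2 fraction set to 0% for non-targeting and 100% for GMNN siRNA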
Direction: G2 robust z-score and G2 cells, % of GMNN control: higher = more G2 cells, more excess DNA replication; raw share of cells in G2: higher = larger share of cells with G2 DNA content
Active means: 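Active siRNAs have a G2 robust z of 5 or more median absolute deviations over the median, which in these data means about 38% or higher of GMNN control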
Here is one part, drawn at random, of about 59,000 reagents tested. About 1,550 of all reagents (2.6%) were called active. 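G2 share is only a proxy for re-replication; each gene was hit by three separate siRNAs, and active genes were retested.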 The raw values are shown without normalisation. A number with no mark means an inactive call. Reagents against one gene are numbered here. Not stated in the record: the amount of reagent.

no.	gene	siRNA no.	G2 robust z-score	G2 cells, % of GMNN control	raw share of cells in G2 (%)
1	LINC01915	1	0.507	6.53	6.66
2	LINC01915	2	0.458	6.19	5.31
3	LINC01915	3	-0.357	0.455	3.34
4	DRD1	1	-0.376	0.319	5.96
5	DRD1	2	-0.33	0.646	4.74
6	DRD1	3	-0.152	1.9	3.85
7	PRR4	1	-0.126	2.08	5.8
8	PRR4	2	0.726	8.07	7.47
9	PRR4	3	0.99	9.93	6.89
10	IFIT5	1	-0.216	1.45	4.46
11	IFIT5	2	-0.796	-2.64	4.97
12	IFIT5	3	2.03	17.3	9.93
13	HESX1	1	-1.11	-4.87	3.55
14	HESX1	2	-0.839	-2.93	3.2
15	HESX1	3	0.914	9.4	8.07
16	PTK6	1	5.49 (active)	41.6	19.4
17	PTK6	2	0.893	9.25	8.53
18	PTK6	3	-1.36	-6.6	1.7
19	LRRC46	1	-0.969	-3.85	2.45
20	LRRC46	2	-0.285	0.959	3.3
21	LRRC46	3	-0.648	-1.59	2.42
22	CHCHD2P9	1	-0.798	-2.65	2.78
23	CHCHD2P9	2	0.8	8.59	6.41
24	CHCHD2P9	3	-0.525	-0.73	2.81
25	ACAD9	1	-0.0343	2.73	5.09
26	ACAD9	2	-0.794	-2.62	3.13
27	ACAD9	3	-0.715	-2.06	5.23
28	OR7A17	1	0.666	7.66	7.29
29	OR7A17	2	-0.563	-0.996	3.51
30	OR7A17	3	0.965	9.76	6.71
31	MDM4	1	0.728	8.09	8.49
32	MDM4	2	4.75	36.4	15.2
33	MDM4	3	-0.18	1.7	6.14
34	TRIM8	1	1.66	14.6	9.49
35	TRIM8	2	-1.03	-4.26	3.21
36	TRIM8	3	-0.613	-1.35	4.87
37	LSM8	1	-1.18	-5.32	1.76
38	LSM8	2	-0.642	-1.55	5.25
39	LSM8	3	2.14	18.1	10.9
40	ZFP42	1	0.751	8.25	5.93
41	ZFP42	2	1.6	14.2	8.1
42	ZFP42	3	0.246	4.7	5.17
43	ASL	1	2.54	20.8	11.8
44	ASL	2	-1.38	-6.78	2.66
45	ASL	3	-0.909	-3.43	2.71
46	FASTKD2	1	-0.633	-1.49	4.4
47	FASTKD2	2	0.289	5	6.2
48	FASTKD2	3	-0.0213	2.82	4.23
49	WNT10B	1	1.86	16.1	12.3
50	WNT10B	2	-0.156	1.87	4.64
51	WNT10B	3	-0.0599	2.55	4.25
52	RBBP5	1	-0.158	1.85	4.2
53	RBBP5	2	-0.323	0.698	3.36
54	RBBP5	3	3.49	27.5	17.7
55	C4orf36	1	-1.28	-6.07	1.89
56	C4orf36	2	-0.816	-2.77	2.22
57	C4orf36	3	-0.969	-3.85	1.18
58	NPFF	1	-1.21	-5.55	3.31
59	NPFF	2	0.0102	3.04	5.92
60	NPFF	3	-0.431	-0.0675	4.68
61	RGS9BP	1	-0.0388	2.69	4.7
62	RGS9BP	2	0.254	4.75	5.47
63	RGS9BP	3	-0.137	2	5.49
64	RDM1	1	-0.705	-1.99	2.89
65	RDM1	2	0.317	5.2	4.7
66	RDM1	3	-0.219	1.43	3.21
67	KRT3	1	6.5 (active)	48.7	22.8
68	KRT3	2	0.333	5.31	7.7
69	KRT3	3	0.589	7.11	6.81

Reformatted: entries from further up.
{"gene": "MDM4", "siRNA no.": 1, "G2 robust z-score": 0.728, "G2 cells, % of GMNN control": 8.09, "raw share of cells in G2 (%)": 8.49}
{"gene": "MDM4", "siRNA no.": 2, "G2 robust z-score": 4.75, "G2 cells, % of GMNN control": 36.4, "raw share of cells in G2 (%)": 15.2}
{"gene": "MDM4", "siRNA no.": 3, "G2 robust z-score": -0.18, "G2 cells, % of GMNN control": 1.7, "raw share of cells in G2 (%)": 6.14}
{"gene": "TRIM8", "siRNA no.": 1, "G2 robust z-score": 1.66, "G2 cells, % of GMNN control": 14.6, "raw share of cells in G2 (%)": 9.49}
{"gene": "TRIM8", "siRNA no.": 2, "G2 robust z-score": -1.03, "G2 cells, % of GMNN control": -4.26, "raw share of cells in G2 (%)": 3.21}
{"gene": "TRIM8", "siRNA no.": 3, "G2 robust z-score": -0.613, "G2 cells, % of GMNN control": -1.35, "raw share of cells in G2 (%)": 4.87}
{"gene": "LSM8", "siRNA no.": 1, "G2 robust z-score": -1.18, "G2 cells, % of GMNN control": -5.32, "raw share of cells in G2 (%)": 1.76}
